Data on one molecule can be found in patent WO2013015821A1.

Results are given in words; binding and its absence hold for the method and conditions named. A result given as binding can be weak or reduced; the word gives no strength.

For assay [1], the target named is TCblR 32-94,142-233-mycHis (human). Description: TC-[57Co]Cbl binding, Scatchard analysis.
The target is the same in assay [2]. The experiment in a line: TC-[57Co]Cbl binding with unlabeled TC-Cbl, WGA-agarose separation, Scatchard analysis.

B1: transcobalamin saturated with cobalamin (TC-Cbl) (ligand, human, UniProt P20062 19-427, looked up)
chain: EMCEIPEMDSHLVEKLGQHLLPWMDRLSLEHLNPSIYVGLRLSSLQAGTKEDLYLHSLKLGYQQCLLGSAFSEDDGDCQGKPSMGQLALYLLALRANCEFVRGHKGDRLVSQLKWFLEDEKRAIGHDHKGHPHTSYYQYGLGILALCLHQKRVHDSVVDKLLYAVEPFHQGHHSVDTAAMAGLAFTCLKRSNFNPGRRQRITMAIRTVREEILKAQTPEGHFGNVYSTPLALQFLMTSPMRGAELGTACLKARVALLASLQDGAFQNALMISQLLPVLNHKTYIDLIFPDCLAPRVMLEPAAETIPQTQEIISVTLQVLSLLPPYRQSISVLAGSTVEDVLKKAHELGGFTYETQASLSGPYLTSVMGKAAGEREFWQLLRDPNTPLLQGIADYRPKDGETIELRLVSW
modifications: cobalamin bound non-covalently ([57Co]Cbl in the radio assays)
As for B1, the binding result in assay [1] and in assay [2] was “binds” each time.
